PubChem BioAssay AID1259425 | University of Nebraska Medical Center, 2018

Assay: 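Seek colon cancer weak points whose silencing resembles KSR1 loss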 (primary screen)
Cell system: HCT116 human colon cancer cells
Reagent: siRNA pool against human genes, 50 nM siRNA
Measurement: 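After 50 nM siRNA pool, branched-DNA assay measures six marker transcripts per well, minus blank, normalised to the geometric mean of two housekeeping transcripts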
Direction: BNIP3L mRNA: higher = more BNIP3L transcript after knockdown; NDRG1 mRNA: higher = more NDRG1 transcript after knockdown
In all, the deposit lists about 14,000 reagents; shown is a random part of them. Reagents against one gene are numbered here. Further read-outs or replicates are left out here. Not given: the time to read-out.

target	reagent no.	BNIP3L mRNA, set 1	NDRG1 mRNA, set 1
CORO2A (GeneID 7464)	1	0.158	0.356
PHF24 (GeneID 23349)	1	0.106	0.137
CSTF2T (GeneID 23283)	1	0.114	0.545
RGS12 (GeneID 6002)	1	0.369	0.429
CD200 (GeneID 4345)	1	0.0504	0.0587
NCOA1 (GeneID 8648)	1	0.0791	0.211
MDM4 (GeneID 4194)	1	0.0968	0.157
ADK (GeneID 132)	1	0.121	0.141
GGT1 (GeneID 2678)	1	0.165	0.156
HEMGN (GeneID 55363)	1	0.178	2.68
TMEM160 (GeneID 54958)	1	0.24	1.14
DRC9 (GeneID 84223)	1	0.427	0.502
SHB (GeneID 6461)	1	0.0743	0.126
SKAP2 (GeneID 8935)	1	0.0728	0.0688
TRAT1 (GeneID 50852)	1	0.117	0.387
ITIH5 (GeneID 80760)	1	0.343	0.502
ITIH5 (GeneID 80760)	2	0.287	0.323
AK1 (GeneID 203)	1	0.117	0.229
CRYAB (GeneID 1410)	1	0.0464	0.222
THAP4 (GeneID 51078)	1	0.085	0.0956
TRIM10 (GeneID 10107)	1	0.138	0.222
PPP1R14D (GeneID 54866)	1	0.14	0.0882
ACP4 (GeneID 93650)	1	0.0789	0.127
ADCY2 (GeneID 108)	1	0.0406	0.105
PRMT2 (GeneID 3275)	1	0.0701	0.0848
HACL1 (GeneID 26061)	1	0.0721	0.167
PTGFR (GeneID 5737)	1	0.432	0.128
NUDCD3 (GeneID 23386)	1	0.226	0.202
ANXA10 (GeneID 11199)	1	0.118	0.0924
UTP14A (GeneID 10813)	1	0.0531	0.427
TNFRSF11A (GeneID 8792)	1	0.129	0.146
CTDSPL (GeneID 10217)	1	0.17	0.328
FTSJ1 (GeneID 24140)	1	0.127	0.549
PDSS1 (GeneID 23590)	1	0.067	0.101
STRAP (GeneID 11171)	1	0.116	0.138
KRT9 (GeneID 3857)	1	0.135	0.183
WDR19 (GeneID 57728)	1	0.0933	0.161
MDM2 (GeneID 4193)	1	0.0663	0.135
CCRL2 (GeneID 9034)	1	0.133	0.28
CALML5 (GeneID 51806)	1	0.0453	0.0259
ETAA1 (GeneID 54465)	1	0.189	0.2
NAT10 (GeneID 55226)	1	0.154	0.274
KCNH7 (GeneID 90134)	1	0.0879	0.0516
DDX3Y (GeneID 8653)	1	0.0368	0.0803
NCEH1 (GeneID 57552)	1	0.0655	0.0589
KRTAP17-1 (GeneID 83902)	1	0.346	0.552
SEPHS1 (GeneID 22929)	1	0.23	0.384
NLRC4 (GeneID 58484)	1	0.241	0.166
MYOT (GeneID 9499)	1	0.222	0.189
PAF1 (GeneID 54623)	1	0.0664	0.395

Laid out differently: results already given
AK1 (GeneID 203) | BNIP3L mRNA, set 1 = 0.117; NDRG1 mRNA, set 1 = 0.229
CRYAB (GeneID 1410) | BNIP3L mRNA, set 1 = 0.0464; NDRG1 mRNA, set 1 = 0.222
THAP4 (GeneID 51078) | BNIP3L mRNA, set 1 = 0.085; NDRG1 mRNA, set 1 = 0.0956
TRIM10 (GeneID 10107) | BNIP3L mRNA, set 1 = 0.138; NDRG1 mRNA, set 1 = 0.222
